These results are taken from publication PMC6562968.

Protein sequences, listed by entry. Tags and fused reporters are not part of them.
UniProt P49841: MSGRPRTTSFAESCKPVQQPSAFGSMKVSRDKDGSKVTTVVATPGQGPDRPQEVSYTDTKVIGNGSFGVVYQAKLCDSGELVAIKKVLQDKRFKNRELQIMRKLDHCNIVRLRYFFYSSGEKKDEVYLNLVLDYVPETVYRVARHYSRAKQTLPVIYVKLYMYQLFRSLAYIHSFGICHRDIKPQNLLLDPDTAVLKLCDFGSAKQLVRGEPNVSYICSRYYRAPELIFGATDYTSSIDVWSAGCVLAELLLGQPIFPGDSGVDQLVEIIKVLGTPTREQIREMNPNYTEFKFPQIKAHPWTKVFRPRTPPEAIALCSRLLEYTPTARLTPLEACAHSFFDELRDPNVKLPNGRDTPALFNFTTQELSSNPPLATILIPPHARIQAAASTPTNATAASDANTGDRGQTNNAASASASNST

The target in this experiment is T1, GST–NDRG2 (N-Myc downstream-regulated gene 2) (UniProt Q9UN36).
T1 sequence: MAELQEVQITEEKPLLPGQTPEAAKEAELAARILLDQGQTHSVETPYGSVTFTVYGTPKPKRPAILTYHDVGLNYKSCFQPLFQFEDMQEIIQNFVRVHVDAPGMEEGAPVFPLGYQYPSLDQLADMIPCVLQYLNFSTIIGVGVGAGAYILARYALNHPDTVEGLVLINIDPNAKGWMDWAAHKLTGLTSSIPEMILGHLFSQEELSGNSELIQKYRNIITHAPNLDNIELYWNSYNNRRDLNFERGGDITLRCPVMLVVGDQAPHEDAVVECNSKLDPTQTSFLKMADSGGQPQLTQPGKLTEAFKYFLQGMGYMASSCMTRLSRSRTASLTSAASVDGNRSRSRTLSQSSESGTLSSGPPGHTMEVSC
The experiment can be described thus: pull-down; GST pull-down on glutathione sepharose 4B from lysates of HEK293 cells co-transfected with GST, GST–NDRG2 or NDRG2 ΔC and HA–GSK3β; 0.5% NP40, 50 mM Tris-HCl pH 8.0, 150 mM NaCl, 4 °C overnight; immunoblotting. On the technique in general: A western blot detects proteins with antibodies after separation by electrophoresis.

Results are given in words; binding and its absence hold for the method and conditions named. In cells and extracts the contact can be indirect. Some entries that bind do so weakly or less than the wild type. Tags and fused reporters may be left off the sequences shown.

On to “HA–GSK3β (glycogen synthase kinase 3β) (from UniProt P49841 1-420) (enzyme)”, for which the binding result is reported as “binds”.
